Results published in the supplement of paper PMC12823440, “Inhibitors supercharge kinase turnover through native proteolytic circuits” (Nature, 2025).
The other results are listed elsewhere or left out. Hit calls seldom repeat between salt and free forms of one compound.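 In K562 cells expressing nanoluciferase-fused kinases, luminescence was recorded at 4 h intervals between 2 and 18 h, normalized as percent of control with DMSO at 100% and a positive control at 0%. A significant (2 sigma) signal drop marks a time point as decreased. The authors' rule for a hit is not shown and takes in more than the number of time points.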

Amino acid sequences for entries named in this document (tags omitted). A change or cut given only in a name is not applied to a line headed by its entry.
UniProt O75460: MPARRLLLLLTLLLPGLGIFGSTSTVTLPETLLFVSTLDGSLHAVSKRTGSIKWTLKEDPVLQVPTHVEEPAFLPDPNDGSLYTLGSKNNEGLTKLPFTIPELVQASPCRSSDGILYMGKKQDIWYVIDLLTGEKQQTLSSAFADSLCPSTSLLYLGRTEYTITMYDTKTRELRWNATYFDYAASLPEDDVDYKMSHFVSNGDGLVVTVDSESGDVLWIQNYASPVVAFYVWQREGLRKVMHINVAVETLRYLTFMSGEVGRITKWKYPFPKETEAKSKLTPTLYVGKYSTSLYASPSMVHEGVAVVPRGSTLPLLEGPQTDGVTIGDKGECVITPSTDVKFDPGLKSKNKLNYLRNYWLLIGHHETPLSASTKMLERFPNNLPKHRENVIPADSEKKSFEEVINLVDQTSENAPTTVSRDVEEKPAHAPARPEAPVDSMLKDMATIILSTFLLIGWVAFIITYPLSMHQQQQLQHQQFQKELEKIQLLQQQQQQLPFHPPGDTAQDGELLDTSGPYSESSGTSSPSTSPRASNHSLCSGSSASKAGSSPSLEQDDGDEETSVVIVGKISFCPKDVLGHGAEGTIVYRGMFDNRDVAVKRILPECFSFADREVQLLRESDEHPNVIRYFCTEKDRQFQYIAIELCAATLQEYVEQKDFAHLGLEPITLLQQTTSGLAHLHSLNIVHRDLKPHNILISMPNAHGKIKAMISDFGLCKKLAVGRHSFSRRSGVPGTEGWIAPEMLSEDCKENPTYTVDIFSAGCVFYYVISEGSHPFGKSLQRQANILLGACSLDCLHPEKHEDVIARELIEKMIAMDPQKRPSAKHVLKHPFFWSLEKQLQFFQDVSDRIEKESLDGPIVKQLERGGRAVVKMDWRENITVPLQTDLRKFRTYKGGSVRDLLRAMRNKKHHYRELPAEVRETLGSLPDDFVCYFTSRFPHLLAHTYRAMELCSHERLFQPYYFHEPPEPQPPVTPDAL
UniProt P11362, whole entry, looked up: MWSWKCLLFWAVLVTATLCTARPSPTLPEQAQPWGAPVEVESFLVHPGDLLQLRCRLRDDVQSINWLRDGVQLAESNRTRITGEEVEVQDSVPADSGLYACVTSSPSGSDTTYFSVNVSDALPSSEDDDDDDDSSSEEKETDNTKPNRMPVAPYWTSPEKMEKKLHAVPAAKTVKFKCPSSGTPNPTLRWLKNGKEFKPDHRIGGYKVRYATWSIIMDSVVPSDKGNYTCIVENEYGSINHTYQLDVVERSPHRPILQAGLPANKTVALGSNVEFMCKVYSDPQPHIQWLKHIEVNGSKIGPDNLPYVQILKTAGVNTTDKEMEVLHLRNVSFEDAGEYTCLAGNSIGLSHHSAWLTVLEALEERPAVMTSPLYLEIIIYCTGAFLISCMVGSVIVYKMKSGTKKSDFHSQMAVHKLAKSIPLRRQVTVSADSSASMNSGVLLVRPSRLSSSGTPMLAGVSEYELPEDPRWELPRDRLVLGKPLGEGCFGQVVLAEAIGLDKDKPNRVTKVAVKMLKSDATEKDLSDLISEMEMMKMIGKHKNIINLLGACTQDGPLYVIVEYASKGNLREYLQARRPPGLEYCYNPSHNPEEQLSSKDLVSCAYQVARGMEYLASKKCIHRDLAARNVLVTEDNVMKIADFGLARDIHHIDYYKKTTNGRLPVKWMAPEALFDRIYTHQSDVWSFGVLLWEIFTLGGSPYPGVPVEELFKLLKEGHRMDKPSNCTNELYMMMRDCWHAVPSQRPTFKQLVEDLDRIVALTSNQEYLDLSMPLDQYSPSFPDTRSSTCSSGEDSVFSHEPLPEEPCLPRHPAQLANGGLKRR
UniProt P22607, whole entry, looked up: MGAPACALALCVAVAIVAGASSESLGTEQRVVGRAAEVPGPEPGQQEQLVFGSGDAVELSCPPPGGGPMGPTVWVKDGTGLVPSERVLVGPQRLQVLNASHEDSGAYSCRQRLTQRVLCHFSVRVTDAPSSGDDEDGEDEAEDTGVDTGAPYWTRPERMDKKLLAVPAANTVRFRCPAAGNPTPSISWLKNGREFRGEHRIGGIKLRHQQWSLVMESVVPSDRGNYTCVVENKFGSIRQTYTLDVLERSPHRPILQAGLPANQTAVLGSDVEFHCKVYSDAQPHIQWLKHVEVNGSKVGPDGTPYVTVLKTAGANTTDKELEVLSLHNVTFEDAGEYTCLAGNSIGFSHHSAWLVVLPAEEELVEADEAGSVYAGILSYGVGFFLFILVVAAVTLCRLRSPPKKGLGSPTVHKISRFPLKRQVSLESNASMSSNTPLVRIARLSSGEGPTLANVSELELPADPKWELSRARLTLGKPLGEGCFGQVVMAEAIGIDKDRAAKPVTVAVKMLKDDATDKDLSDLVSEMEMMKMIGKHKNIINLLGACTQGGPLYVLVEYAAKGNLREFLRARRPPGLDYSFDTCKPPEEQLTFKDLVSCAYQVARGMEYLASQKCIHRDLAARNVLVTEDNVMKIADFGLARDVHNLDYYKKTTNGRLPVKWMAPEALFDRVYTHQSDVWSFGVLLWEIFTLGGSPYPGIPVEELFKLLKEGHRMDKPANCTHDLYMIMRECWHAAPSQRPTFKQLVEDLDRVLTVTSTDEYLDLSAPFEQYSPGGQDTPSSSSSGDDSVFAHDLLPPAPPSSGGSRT
UniProt P36888, whole entry: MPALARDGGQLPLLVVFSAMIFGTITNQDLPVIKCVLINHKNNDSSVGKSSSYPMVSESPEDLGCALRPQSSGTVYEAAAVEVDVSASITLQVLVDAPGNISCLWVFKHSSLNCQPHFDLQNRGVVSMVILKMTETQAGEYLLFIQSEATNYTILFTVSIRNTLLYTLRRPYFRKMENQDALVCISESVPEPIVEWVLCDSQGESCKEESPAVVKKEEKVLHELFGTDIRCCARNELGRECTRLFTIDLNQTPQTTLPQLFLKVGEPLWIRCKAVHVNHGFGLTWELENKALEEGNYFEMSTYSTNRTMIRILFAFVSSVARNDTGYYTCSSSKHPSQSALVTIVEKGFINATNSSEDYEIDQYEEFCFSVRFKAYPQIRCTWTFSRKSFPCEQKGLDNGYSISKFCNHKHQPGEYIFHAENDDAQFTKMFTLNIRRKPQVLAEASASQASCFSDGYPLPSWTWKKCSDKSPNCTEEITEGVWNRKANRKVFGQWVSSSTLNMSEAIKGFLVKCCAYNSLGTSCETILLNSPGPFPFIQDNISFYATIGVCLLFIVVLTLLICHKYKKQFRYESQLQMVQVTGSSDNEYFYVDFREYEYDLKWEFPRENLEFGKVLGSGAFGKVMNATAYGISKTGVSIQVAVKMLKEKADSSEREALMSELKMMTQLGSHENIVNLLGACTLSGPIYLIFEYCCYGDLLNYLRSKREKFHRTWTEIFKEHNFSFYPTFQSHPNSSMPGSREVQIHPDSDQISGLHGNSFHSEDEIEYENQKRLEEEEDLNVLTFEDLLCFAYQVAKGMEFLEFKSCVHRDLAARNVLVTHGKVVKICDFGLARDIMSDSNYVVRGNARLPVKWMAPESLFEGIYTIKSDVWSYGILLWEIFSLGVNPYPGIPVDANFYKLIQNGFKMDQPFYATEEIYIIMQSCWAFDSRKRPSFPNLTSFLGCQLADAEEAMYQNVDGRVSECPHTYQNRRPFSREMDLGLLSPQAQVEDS
UniProt P06241, whole entry, looked up: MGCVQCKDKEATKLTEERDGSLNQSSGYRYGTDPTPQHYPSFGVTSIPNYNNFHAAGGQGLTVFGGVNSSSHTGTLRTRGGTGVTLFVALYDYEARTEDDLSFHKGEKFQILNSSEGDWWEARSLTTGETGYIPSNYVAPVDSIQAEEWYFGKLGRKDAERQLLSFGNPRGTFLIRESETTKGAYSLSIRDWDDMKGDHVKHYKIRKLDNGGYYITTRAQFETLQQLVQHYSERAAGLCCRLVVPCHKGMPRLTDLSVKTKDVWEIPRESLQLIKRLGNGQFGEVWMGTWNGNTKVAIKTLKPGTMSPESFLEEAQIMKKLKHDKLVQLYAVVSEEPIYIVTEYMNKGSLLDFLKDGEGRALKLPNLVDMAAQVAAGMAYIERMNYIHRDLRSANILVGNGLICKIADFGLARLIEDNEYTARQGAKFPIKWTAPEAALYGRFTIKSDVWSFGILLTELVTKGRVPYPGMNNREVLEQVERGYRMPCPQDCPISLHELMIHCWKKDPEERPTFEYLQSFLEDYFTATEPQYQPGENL
UniProt P49840: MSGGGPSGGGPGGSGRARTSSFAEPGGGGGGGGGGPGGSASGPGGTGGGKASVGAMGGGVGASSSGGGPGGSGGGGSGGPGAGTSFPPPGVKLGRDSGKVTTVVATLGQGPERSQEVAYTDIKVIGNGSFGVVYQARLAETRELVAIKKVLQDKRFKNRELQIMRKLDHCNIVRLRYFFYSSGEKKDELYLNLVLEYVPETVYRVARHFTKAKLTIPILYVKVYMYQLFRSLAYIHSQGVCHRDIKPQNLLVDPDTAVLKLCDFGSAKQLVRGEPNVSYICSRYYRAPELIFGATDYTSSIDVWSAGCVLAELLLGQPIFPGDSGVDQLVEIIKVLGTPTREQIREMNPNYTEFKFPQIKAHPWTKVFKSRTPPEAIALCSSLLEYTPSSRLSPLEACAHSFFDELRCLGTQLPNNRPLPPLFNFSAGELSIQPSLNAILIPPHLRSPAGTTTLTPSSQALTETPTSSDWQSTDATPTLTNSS
UniProt P06239: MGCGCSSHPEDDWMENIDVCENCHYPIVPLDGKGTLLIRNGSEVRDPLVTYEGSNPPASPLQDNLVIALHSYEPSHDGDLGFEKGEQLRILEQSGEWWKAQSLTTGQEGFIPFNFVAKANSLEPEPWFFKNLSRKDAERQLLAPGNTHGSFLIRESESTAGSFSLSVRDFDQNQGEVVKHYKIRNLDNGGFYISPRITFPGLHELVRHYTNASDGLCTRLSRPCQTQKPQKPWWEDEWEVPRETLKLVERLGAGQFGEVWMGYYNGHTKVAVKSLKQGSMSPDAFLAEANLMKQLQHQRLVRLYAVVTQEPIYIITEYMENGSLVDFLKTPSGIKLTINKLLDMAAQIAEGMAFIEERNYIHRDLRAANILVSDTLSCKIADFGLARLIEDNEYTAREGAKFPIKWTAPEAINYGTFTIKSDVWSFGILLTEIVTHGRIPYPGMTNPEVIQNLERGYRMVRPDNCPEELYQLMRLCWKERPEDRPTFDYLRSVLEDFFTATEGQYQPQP
UniProt P53667: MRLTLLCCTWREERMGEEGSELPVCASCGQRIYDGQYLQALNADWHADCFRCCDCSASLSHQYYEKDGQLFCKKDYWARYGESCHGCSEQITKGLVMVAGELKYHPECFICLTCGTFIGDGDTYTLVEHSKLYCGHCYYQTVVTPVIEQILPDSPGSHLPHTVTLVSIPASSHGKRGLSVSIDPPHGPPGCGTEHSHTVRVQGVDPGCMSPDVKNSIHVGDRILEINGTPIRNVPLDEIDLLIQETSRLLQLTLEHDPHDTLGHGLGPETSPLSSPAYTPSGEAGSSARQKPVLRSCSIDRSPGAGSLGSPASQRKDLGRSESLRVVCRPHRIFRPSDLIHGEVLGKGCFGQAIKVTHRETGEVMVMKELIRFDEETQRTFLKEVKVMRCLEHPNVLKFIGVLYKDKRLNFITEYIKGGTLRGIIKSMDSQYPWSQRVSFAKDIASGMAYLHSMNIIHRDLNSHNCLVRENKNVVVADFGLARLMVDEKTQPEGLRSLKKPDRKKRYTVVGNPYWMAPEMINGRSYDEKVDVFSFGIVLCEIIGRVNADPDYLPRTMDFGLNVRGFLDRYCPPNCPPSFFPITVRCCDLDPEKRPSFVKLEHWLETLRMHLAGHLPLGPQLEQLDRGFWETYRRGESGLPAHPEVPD
UniProt Q12851: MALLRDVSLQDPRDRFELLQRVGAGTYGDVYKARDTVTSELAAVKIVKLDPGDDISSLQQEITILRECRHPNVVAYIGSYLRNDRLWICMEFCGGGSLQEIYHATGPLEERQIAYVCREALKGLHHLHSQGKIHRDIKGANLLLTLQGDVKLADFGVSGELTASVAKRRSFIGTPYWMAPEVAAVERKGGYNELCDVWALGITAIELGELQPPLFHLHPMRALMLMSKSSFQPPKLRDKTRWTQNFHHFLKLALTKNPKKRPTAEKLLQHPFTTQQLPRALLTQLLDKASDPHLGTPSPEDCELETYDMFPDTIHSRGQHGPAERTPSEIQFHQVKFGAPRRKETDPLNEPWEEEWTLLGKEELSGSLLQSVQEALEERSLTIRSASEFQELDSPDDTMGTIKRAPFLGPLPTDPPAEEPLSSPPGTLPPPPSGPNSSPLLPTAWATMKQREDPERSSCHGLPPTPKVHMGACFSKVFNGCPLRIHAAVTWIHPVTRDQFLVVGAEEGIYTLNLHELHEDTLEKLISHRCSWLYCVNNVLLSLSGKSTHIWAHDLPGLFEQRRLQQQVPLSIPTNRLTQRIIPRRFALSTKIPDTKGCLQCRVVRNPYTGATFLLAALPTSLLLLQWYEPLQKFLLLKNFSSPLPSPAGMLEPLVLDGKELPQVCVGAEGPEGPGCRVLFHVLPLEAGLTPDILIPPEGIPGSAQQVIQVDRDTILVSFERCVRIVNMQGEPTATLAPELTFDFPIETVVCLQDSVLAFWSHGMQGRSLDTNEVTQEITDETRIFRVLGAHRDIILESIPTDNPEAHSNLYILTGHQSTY

Assays:
Assay in all cases: kinase-Nluc reporter destabilization hit call (1 = scored as downregulated) (binary); higher = compound decreases kinase abundance
Settings in all cases: K562; 2-18 h
[1] = target: ERN1 (UniProt O75460)
[2] = target: FGFR1 (UniProt P11362)
[3] = target: FGFR2 (UniProt P21802)
[4] = target: FGFR3 (UniProt P22607)
[5] = target: FGR (UniProt P09769)
[6] = target: FLT3 (UniProt P36888)
[7] = target: FYN (UniProt P06241)
[8] = target: GSK3A (UniProt P49840)
[9] = target: HER2 (UniProt P04626)
[10] = target: INSRR (UniProt P14616)
[11] = target: IRAK3 (UniProt Q9Y616)
[12] = target: JAK1 (UniProt P23458)
[13] = target: LCK (UniProt P06239)
[14] = target: LIMK1 (UniProt P53667)
[15] = target: LIMK2 (UniProt P53671)
[16] = target: LMTK2 (UniProt Q8IWU2)
[17] = target: LYN (UniProt P07948)
[18] = target: MAP2K1 (UniProt Q02750)
[19] = target: MAP2K2 (UniProt P36507)
[20] = target: MAP4K2 (UniProt Q12851)

Measured: kinase-Nluc reporter destabilization hit call

CC[C@H](C)[C@@H]1NC(=O)[C@@H]2CCCN2C(=O)[C@@H]2CCCN2C(=O)[C@@H]2CCCN2C(=O)[C@H](CC(C)C)NC(=O)CNC(=O)CNC(=O)[C@H](Cc2ccccc2)NC1=O [Heterophyllin B] (10 µM)
inactive: [1] 0 | [2] 0 | [3] 0 | [4] 0 | [5] 0 | [6] 0 | [7] 0 | [8] 0 | [9] 0 | [10] 0 | [11] 0 | [12] 0 | [13] 0 | [14] 0 | [15] 0 | [16] 0 | [17] 0 | [18] 0 | [19] 0 | [20] 0

CC[C@@H]1CN(C(=O)NCC(F)(F)F)C[C@@H]1c1cnc2cnc3[nH]ccc3n12 [Upadacitinib] (10 µM)
inactive: [1] 0 | [2] 0 | [3] 0 | [4] 0 | [5] 0 | [6] 0 | [7] 0 | [8] 0 | [9] 0 | [10] 0 | [11] 0 | [12] 0 | [13] 0 | [14] 0 | [15] 0 | [16] 0 | [17] 0 | [18] 0 | [19] 0 | [20] 0

C=C[C@H]1[C@H](O[C@@H]2O[C@H](CO)[C@@H](O)[C@H](O)[C@H]2O)OC=C(C(=O)OC)[C@H]1CCOC(=O)c1cc(O)c(O)c(O)c1 [Cornuside] (10 µM)
inactive: [1] 0 | [2] 0 | [3] 0 | [4] 0 | [5] 0 | [6] 0 | [7] 0 | [8] 0 | [9] 0 | [10] 0 | [11] 0 | [12] 0 | [13] 0 | [14] 0 | [15] 0 | [16] 0 | [17] 0 | [18] 0 | [19] 0 | [20] 0

CCCCCC1CC1CC1CC1CCCCCCCC(=O)O (stereo not given) (10 µM)
inactive: [1] 0 | [2] 0 | [3] 0 | [4] 0 | [5] 0 | [6] 0 | [7] 0 | [8] 0 | [9] 0 | [10] 0 | [11] 0 | [12] 0 | [13] 0 | [14] 0 | [15] 0 | [16] 0 | [17] 0 | [18] 0 | [19] 0 | [20] 0

C[C@H]1CNC(=O)c2cnn3ccc(nc23)N[C@H](C)c2cc(F)ccc2O1 [Repotrectinib] (2.5 µM)
inactive: [1] 0 | [2] 0 | [3] 0 | [4] 0 | [5] 0 | [6] 0 | [7] 0 | [8] 0 | [9] 0 | [10] 0 | [11] 0 | [12] 0 | [13] 0 | [14] 0 | [15] 0 | [16] 0 | [17] 0 | [18] 0 | [19] 0 | [20] 0

Cn1sc(=O)n(Cc2ccccc2)c1=O (10 µM)
inactive: [1] 0 | [2] 0 | [3] 0 | [4] 0 | [5] 0 | [6] 0 | [7] 0 | [8] 0 | [9] 0 | [10] 0 | [11] 0 | [12] 0 | [13] 0 | [14] 0 | [15] 0 | [16] 0 | [17] 0 | [18] 0 | [19] 0 | [20] 0

CC(C)n1cnnc1-c1cccc(NC(=O)c2cc3ccc(F)cc3[nH]2)n1 (2.5 µM)
inactive: [1] 0 | [2] 0 | [3] 0 | [4] 0 | [5] 0 | [6] 0 | [7] 0 | [8] 0 | [9] 0 | [10] 0 | [11] 0 | [12] 0 | [13] 0 | [14] 0 | [15] 0 | [16] 0 | [17] 0 | [18] 0 | [19] 0 | [20] 0

O=C(Nc1cc(Cl)cc(Cl)c1)Nc1cc(Cl)cc(Cl)c1 (10 µM)
inactive: [1] 0 | [2] 0 | [3] 0 | [4] 0 | [5] 0 | [6] 0 | [7] 0 | [8] 0 | [9] 0 | [10] 0 | [11] 0 | [12] 0 | [13] 0 | [14] 0 | [15] 0 | [16] 0 | [17] 0 | [18] 0 | [19] 0 | [20] 0

3 structures out of the list, sorted by molecular weight, falling:
CC[C@@H]1CN(C(=O)NCC(F)(F)F)C[C@@H]1c1cnc2cnc3[nH]ccc3n12 [Upadacitinib] (10 µM)
inactive: [1] 0 | [2] 0 | [3] 0 | [4] 0 | [5] 0 | [6] 0 | [7] 0 | [8] 0 | [9] 0 | [10] 0 | [11] 0 | [12] 0 | [13] 0 | [14] 0 | [15] 0 | [16] 0 | [17] 0 | [18] 0 | [19] 0 | [20] 0

O=C(Nc1cc(Cl)cc(Cl)c1)Nc1cc(Cl)cc(Cl)c1 (10 µM)
inactive: [1] 0 | [2] 0 | [3] 0 | [4] 0 | [5] 0 | [6] 0 | [7] 0 | [8] 0 | [9] 0 | [10] 0 | [11] 0 | [12] 0 | [13] 0 | [14] 0 | [15] 0 | [16] 0 | [17] 0 | [18] 0 | [19] 0 | [20] 0

Cn1sc(=O)n(Cc2ccccc2)c1=O (10 µM)
inactive: [1] 0 | [2] 0 | [3] 0 | [4] 0 | [5] 0 | [6] 0 | [7] 0 | [8] 0 | [9] 0 | [10] 0 | [11] 0 | [12] 0 | [13] 0 | [14] 0 | [15] 0 | [16] 0 | [17] 0 | [18] 0 | [19] 0 | [20] 0

(further entries)

Cn1cc(-c2cn3nccc3c(-c3cnn([C@]4(CC#N)C[C@@H](C#N)C4)c3)n2)cn1 (10 µM)
inactive: [1] 0 | [2] 0 | [3] 0 | [4] 0 | [5] 0 | [6] 0 | [7] 0 | [8] 0 | [9] 0 | [10] 0 | [11] 0 | [12] 0 | [13] 0 | [14] 0 | [15] 0 | [16] 0 | [17] 0 | [18] 0 | [19] 0 | [20] 0

O=c1[nH]nc(Sc2ncc([N+](=O)[O-])s2)n1-c1ccc2c(c1)OCCO2 (2.5 µM)
inactive: [1] 0 | [2] 0 | [3] 0 | [4] 0 | [5] 0 | [6] 0 | [7] 0 | [8] 0 | [9] 0 | [10] 0 | [11] 0 | [12] 0 | [13] 0 | [14] 0 | [15] 0 | [16] 0 | [17] 0 | [18] 0 | [19] 0 | [20] 0

OCCC#Cc1nc(-c2ccc(F)cc2)c(-c2ccncc2)n1CCCc1ccccc1 (2.5 µM)
inactive: [1] 0 | [2] 0 | [3] 0 | [4] 0 | [5] 0 | [6] 0 | [7] 0 | [8] 0 | [9] 0 | [10] 0 | [11] 0 | [12] 0 | [13] 0 | [14] 0 | [15] 0 | [16] 0 | [17] 0 | [18] 0 | [19] 0 | [20] 0

C[C@@H]1CN(Cc2cn[nH]c2-c2ccc(C#N)cc2)CCN1c1ccc(C(F)(F)F)cn1 (2.5 µM)
inactive: [1] 0 | [2] 0 | [3] 0 | [4] 0 | [5] 0 | [6] 0 | [7] 0 | [8] 0 | [9] 0 | [10] 0 | [11] 0 | [12] 0 | [13] 0 | [14] 0 | [15] 0 | [16] 0 | [17] 0 | [18] 0 | [19] 0 | [20] 0

CS(=O)(=O)N1CCc2c(-c3cnc(N)nc3)nc(N3CCOCC3)nc21 (10 µM)
inactive: [1] 0 | [2] 0 | [3] 0 | [4] 0 | [5] 0 | [6] 0 | [7] 0 | [8] 0 | [9] 0 | [10] 0 | [11] 0 | [12] 0 | [13] 0 | [14] 0 | [15] 0 | [16] 0 | [17] 0 | [18] 0 | [19] 0 | [20] 0

CN1CCN(c2ccc(NC(=O)c3ccc(C#N)o3)c(N3CCCCC3)c2)CC1 (10 µM)
inactive: [1] 0 | [2] 0 | [3] 0 | [4] 0 | [5] 0 | [6] 0 | [7] 0 | [8] 0 | [9] 0 | [10] 0 | [11] 0 | [12] 0 | [13] 0 | [14] 0 | [15] 0 | [16] 0 | [17] 0 | [18] 0 | [19] 0 | [20] 0

COc1cc(/C=C/c2ccc(NC(=O)/C=C/c3cc(OC)c(OC)c(OC)c3)cc2)cc(OC)c1 (2.5 µM)
inactive: [1] 0 | [2] 0 | [3] 0 | [4] 0 | [5] 0 | [6] 0 | [7] 0 | [8] 0 | [9] 0 | [10] 0 | [11] 0 | [12] 0 | [13] 0 | [14] 0 | [15] 0 | [16] 0 | [17] 0 | [18] 0 | [19] 0 | [20] 0

C=CC(=O)Nc1cccc(Nc2nc(Nc3ccc(Oc4ccnc(C(=O)NC)c4)cc3)ncc2F)c1 (2.5 µM)
inactive: [1] 0 | [2] 0 | [3] 0 | [4] 0 | [5] 0 | [6] 0 | [7] 0 | [8] 0 | [9] 0 | [10] 0 | [11] 0 | [12] 0 | [13] 0 | [14] 0 | [15] 0 | [16] 0 | [17] 0 | [18] 0 | [19] 0 | [20] 0
